Assay: Amount of active penetrated inside hair after soaking
Details: pH 4.2, 40 deg C

## O=C(O)c1cc(Cl)ccc1O [5-Chlorosalicylic acid]
10 min soaking
  mg/g of Cl Salicylic acid: 19 mg/g
20 min soaking
  mg/g of Cl Salicylic acid: 25 mg/g
30 min soaking
  mg/g of Cl Salicylic acid: 30 mg/g
1 hr soaking
  mg/g of Cl Salicylic acid: 32 mg/g
2 hr soaking
  mg/g of Cl Salicylic acid: 32.8 mg/g

From US10660835B2, “Method for hair frizz reduction” (The Procter & Gamble Company, priority 2015, dated 2020)
